# Reference: PubChem BioAssay AID258 (DTP/NCI, 2004)
# The list is a part of this screen's results and no random one: it is rich in T/C values a quarter to a half above the control, in often repeated tests (any T/C) and in doses without a T/C. Other doses and runs of a compound stand elsewhere. T/C gives the treated animals as a percentage of the vehicle group. Some doses have a count of surviving animals in place of a T/C: the source files T/C as zero there, which appears to mark a toxic dose or a test without result, not a measured value. Some survivor counts are full or nearly so, which does not show that the dose was tolerated: the source hardly ever lists a survival T/C far under the control, and the zero likely stands for such cases as well. Survivors were counted at the toxicity check, usually on the fifth day, unless a day is given; later deaths do not show. Schedules are NCI's codes, taken here to give the interval after Q, in days (D) or hours (H), and the number of doses after X. Some schedules carry Z or #; the key to these is not given. For survival time, the PubChem record calls one and a half times the control and up active, and a quarter to a half above the control has no call in these data; cut-offs in other NCI protocols can differ.
# Tested on: CD2F1 mice, L1210 leukemia sc, survival T/C
# Assay: NCI In Vivo Anticancer Drug Screen. Data for tumor model L1210 Leukemia (subcutaneous) in CD2F1 (CDF1) mice
# Conditions: T/C endpoint: median survival time, higher T/C = longer survival
# Procedure: The antitumor activity of compounds was measured in mice bearing transplantable tumors. Survival or tumor size were measured and the results are expressed as the measurement made in the treated group (T) divided by the measurement made in the vehicle treated control group (C). The tumor model used in this assay is L1210 Leukemia (subcutaneous) in CD2F1 (CDF1) mice
smiles,measurement,setting,value
O=C(O)CCCc1ccc(N(CCCl)CCCl)cc1,survivor count,"dose: 1.5 mg/kg/injection, schedule: Q01DX009 (sc), vehicle: saline with Tween-80",2 of 10
same,survivor count,"dose: 3.0 mg/kg/injection, schedule: Q01DX009 (sc), vehicle: saline with Tween-80",5 of 10
same,survivor count,"dose: 6.0 mg/kg/injection, schedule: Q01DX009 (sc), vehicle: saline with Tween-80",5 of 10
same,survivor count,"dose: 12.0 mg/kg/injection, schedule: Q01DX009 (sc), vehicle: saline with Tween-80",6 of 10
same,survivor count,"dose: 24.0 mg/kg/injection, schedule: Q01DX009 (ip), vehicle: saline with Tween-80",7 of 10
same,survivor count,"dose: 24.0 mg/kg/injection, schedule: Q01DX009 (sc), vehicle: saline with Tween-80",5 of 10
same,survivor count,"dose: 48.0 mg/kg/injection, schedule: Q01DX009 (ip), vehicle: saline with Tween-80",0 of 10
same,survivor count,"dose: 48.0 mg/kg/injection, schedule: Q01DX009 (sc), vehicle: saline with Tween-80",0 of 10
CCOS(C)(=O)=O,survivor count,"dose: 14.0 mg/kg/injection, schedule: Q01DX Z (sc), vehicle: saline",1 of 10
same,survivor count,"dose: 23.0 mg/kg/injection, schedule: Q01DX Z (sc), vehicle: saline",0 of 10
same,survivor count,"dose: 39.0 mg/kg/injection, schedule: Q01DX Z (sc), vehicle: saline",0 of 10
same,survivor count,"dose: 65.0 mg/kg/injection, schedule: Q01DX Z (sc), vehicle: saline",2 of 10
same,survivor count,"dose: 108.0 mg/kg/injection, schedule: Q01DX Z (sc), vehicle: saline",1 of 10
same,survivor count,"dose: 180.0 mg/kg/injection, schedule: Q01DX Z (sc), vehicle: saline",2 of 10
same,survivor count,"dose: 300.0 mg/kg/injection, schedule: Q01DX Z (sc), vehicle: saline",1 of 10
CO[C@H](/C(C)=C/C=C/C(C)=C/c1coc(C)n1)[C@H](C)[C@H]1C[C@@H](O)[C@@]2(C)O[C@H]2/C=C/[C@@H](C)[C@@H]2C[C@@H](CC(=O)O2)C[C@H]2O[C@@H]2C(=O)O1,T/C,"dose: 0.5 mg/kg/injection, schedule: Q01DX009 (ip), vehicle: Klucel (hydroxypropylcellulose) (HPC)",142 % of control
same,survivor count,"dose: 2.0 mg/kg/injection, schedule: Q01DX009 (ip), vehicle: Klucel (hydroxypropylcellulose) (HPC)",6 of 6
same,survivor count,"dose: 4.0 mg/kg/injection, schedule: Q01DX009 (ip), vehicle: Klucel (hydroxypropylcellulose) (HPC)",2 of 6
